This assay concerns the target T1, Dsn1-6His-3Flag (S. cerevisiae) (UniProt P40568).
T1 sequence: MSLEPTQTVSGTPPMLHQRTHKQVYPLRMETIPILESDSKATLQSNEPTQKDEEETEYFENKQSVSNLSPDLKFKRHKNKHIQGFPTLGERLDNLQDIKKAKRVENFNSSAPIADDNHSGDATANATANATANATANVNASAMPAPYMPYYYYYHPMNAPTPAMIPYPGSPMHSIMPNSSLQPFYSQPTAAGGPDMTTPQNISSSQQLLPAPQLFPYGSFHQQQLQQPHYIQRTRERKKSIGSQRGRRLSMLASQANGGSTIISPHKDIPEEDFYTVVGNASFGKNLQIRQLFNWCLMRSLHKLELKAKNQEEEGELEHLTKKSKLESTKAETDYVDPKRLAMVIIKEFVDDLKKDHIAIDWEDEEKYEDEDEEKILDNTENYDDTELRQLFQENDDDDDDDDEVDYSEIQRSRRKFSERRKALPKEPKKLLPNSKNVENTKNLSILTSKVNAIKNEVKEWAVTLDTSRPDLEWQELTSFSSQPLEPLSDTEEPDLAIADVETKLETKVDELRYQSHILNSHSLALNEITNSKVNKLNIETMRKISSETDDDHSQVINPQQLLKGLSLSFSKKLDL
The assay is described as follows: co-IP.

The values that follow come from article doi:10.1101/453811.

Results are given in words; binding and its absence hold for the method and conditions named. In cells and extracts the contact can be indirect. A result given as binding can be weak or reduced; the word gives no strength. Sequences can lack the tags named with a protein.

As to “Stu2^TOG1Δ-3V5 (stu2(Δ2-281)-3V5) (S. cerevisiae) (domain or fragment)”, the binding entry is given as “binds”.
